{
  "source": "the supplement of paper PMC12872613",
  "note": "Where a name gives a salt, the structure may show the parent alone. The list shows a part of the results. Rule as the data show it: active = 0.7 or more and inactive = the rest. Most values come without repeats; read them as rough.",
  "data": [
    {"tested_on": "MiaPaCa-2 CLSA-25", "experiment": "cell death relative to DMSO vehicle (fraction); higher = more cytotoxic", "settings": "5 µM; treatment time 48 h; medium cystine 25 µM", "values": [
      {"smiles": "COc1ccc2c(c1)c(CC(=O)OCC(=O)O)c(C)n2C(=O)c1ccc(Cl)cc1", "note": "[Acemetacin]", "cell death": "inactive: 0.111"},
      {"smiles": "Cn1c(=O)c2c(ncn2CC2OCCO2)n(C)c1=O", "note": "[Doxofylline]", "cell death": "inactive: 0.142"},
      {"smiles": "O=C(Nc1cccc(C(F)(F)F)c1)Nc1cc(S(=O)(=O)NC2CC2)ccc1-c1ccsc1", "cell death": "inactive: 0.282"},
      {"smiles": "O=C(O)c1ccc2cc(-c3ccc(O)c(C45CC6CC(CC(C6)C4)C5)c3)ccc2c1", "cell death": "active: 0.702"},
      {"smiles": "CN(C)C(=N)NC(=N)N", "note": "[Metformin hydrochloride]", "cell death": "inactive: 0.452"},
      {"smiles": "Cc1cc([N+](=O)[O-])ccc1NS(=O)(=O)c1cc(Cl)ccc1Cl", "cell death": "active: 0.733"},
      {"smiles": "COc1ccc2[nH]c(C(=O)N3CCC(CC(C)(C)O)CC3)cc2c1", "cell death": "active: 0.732"},
      {"smiles": "NCCCC(N)(C(=O)O)C(F)F", "note": "(configuration not stated) [Eflornithine hydrochloride Monohydrate]", "cell death": "inactive: 0.486"},
      {"smiles": "NC(=O)c1cnccn1", "note": "[Pyrazinamide]", "cell death": "inactive: 0.236"},
      {"smiles": "COc1cc(NC(=O)Nc2cccc(CNC(=O)O[C@H]3CCOC3)c2)ccc1-c1cnco1", "note": "[Merimepodib]", "cell death": "active: 0.708"},
      {"smiles": "O=C1C(=Cc2cccnc2)C(=O)c2ccccc21", "cell death": "inactive: 0.078"},
      {"smiles": "COc1cc2c(cc1Cc1cccc(Cl)c1F)c(=O)c(C(=O)O)cn2[C@H](CO)C(C)C", "note": "[Elvitegravir]", "cell death": "active: 0.803"},
      {"smiles": "CC(=O)Oc1c(C)c(C)c2c(c1C)CCC(C)(CCC[C@H](C)CCC[C@H](C)CCCC(C)C)O2", "note": "(some centres not stated) [Vitamin E Acetate]", "cell death": "inactive: 0.353"},
      {"smiles": "COc1ccc2c(c1)c(CC(=O)O)c(C)n2C(=O)c1ccc(Cl)cc1", "note": "[Indometacin]", "cell death": "inactive: 0.0126"},
      {"smiles": "CC1(C)CCC2=C(O1)c1ccccc1C(=O)C2=O", "note": "[Beta-Lapachone]", "cell death": "inactive: 0.539"},
      {"smiles": "C[C@@]12CC[C@@H]3[C@@](CC[C@H]4[C@@]3(C)CCC[C@@]4(C)C(=O)O)(CC1=O)C2", "note": "[Isosteviol]", "cell death": "inactive: 0.0623"},
      {"smiles": "COc1cc(C2Oc3ccc(C4Oc5cc(O)cc(O)c5C(=O)C4O)cc3OC2CO)ccc1O", "note": "(configuration not stated) [Isosilybin]", "cell death": "active: 0.703"},
      {"smiles": "NS(=O)(=O)c1ccc(NC(=O)Nc2ccc(F)cc2)cc1", "cell death": "inactive: 0.112"},
      {"smiles": "COc1cccc(-c2cc(F)ccc2[C@H]2Cc3nc(N)nc(C)c3C(=O)N2)n1", "cell death": "inactive: 0.131"},
      {"smiles": "CC(C)c1c(C(=O)Nc2ccccc2)c(-c2ccccc2)c(-c2ccc(F)cc2)n1CC[C@@H](O)C[C@@H](O)CC(=O)O", "note": "[Atorvastatin Calcium]", "cell death": "inactive: 0.464"},
      {"smiles": "N[C@@H](CC(=O)N1CCn2c(nnc2C(F)(F)F)C1)Cc1cc(F)c(F)cc1F", "note": "[Sitagliptin]", "cell death": "active: 0.714"},
      {"smiles": "Cc1nc(Nc2cnn(C3CCNCC3)c2)nc2c1N(C)C(=O)c1cc3ccccc3cc1N2C", "cell death": "inactive: 0.338"},
      {"smiles": "NCCCC[C@H](N[C@@H](CCc1ccccc1)C(=O)O)C(=O)N1CCC[C@H]1C(=O)O", "note": "[Lisinopril dihydrate]", "cell death": "inactive: 0.0522"},
      {"smiles": "Cc1cc(OCCCS(C)(=O)=O)cc(C)c1-c1cccc(COc2ccc3c(c2)OC[C@H]3CC(=O)O)c1", "cell death": "inactive: 0.587"},
      {"smiles": "C[C@]12CC[C@H](O)CC1=CC[C@@H]1[C@@H]2CC[C@]2(C)C(n3cnc4ccccc43)=CC[C@@H]12", "note": "[Galeterone]", "cell death": "inactive: 0.283"},
      {"smiles": "OC[C@H]1O[C@@H](O[C@@H]2[C@@H](CO)OC(O)(CO)[C@H]2O)[C@H](O)[C@@H](O)[C@H]1O", "note": "(mixture of isomers) [Lactulose]", "cell death": "inactive: 0.14"},
      {"smiles": "N[C@@H](CCC(=O)N[C@@H](CS)C(=O)NCC(=O)O)C(=O)O", "note": "[Glutathione]", "cell death": "inactive: 0.0776"}
    ]}
  ]
}
